We go through one substance from article PMC7302877.

Protein sequences, listed by entry. Tags and fused reporters are not part of them. Lines headed by an entry give the natural chain unless they say otherwise; changes in a name come on top.
UniProt P49910: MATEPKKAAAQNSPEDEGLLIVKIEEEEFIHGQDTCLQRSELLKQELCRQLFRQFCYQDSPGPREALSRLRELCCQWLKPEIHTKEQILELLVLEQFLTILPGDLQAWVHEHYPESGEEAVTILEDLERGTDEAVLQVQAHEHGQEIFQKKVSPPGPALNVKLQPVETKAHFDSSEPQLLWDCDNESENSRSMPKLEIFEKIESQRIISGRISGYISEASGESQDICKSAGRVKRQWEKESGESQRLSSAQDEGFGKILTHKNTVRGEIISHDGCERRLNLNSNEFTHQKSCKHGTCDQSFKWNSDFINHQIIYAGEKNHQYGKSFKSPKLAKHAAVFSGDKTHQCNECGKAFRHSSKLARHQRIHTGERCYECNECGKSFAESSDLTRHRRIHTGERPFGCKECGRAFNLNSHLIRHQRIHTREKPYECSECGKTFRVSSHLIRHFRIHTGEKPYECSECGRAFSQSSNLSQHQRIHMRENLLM

No constants are given. Whether binding was seen depends on the method and setting. In cells and extracts the contact can be indirect. Sequences can lack the tags named with a protein.

The assay deals with T1, ZNF446-V5 (UniProt Q9NWS9).
T1 sequence: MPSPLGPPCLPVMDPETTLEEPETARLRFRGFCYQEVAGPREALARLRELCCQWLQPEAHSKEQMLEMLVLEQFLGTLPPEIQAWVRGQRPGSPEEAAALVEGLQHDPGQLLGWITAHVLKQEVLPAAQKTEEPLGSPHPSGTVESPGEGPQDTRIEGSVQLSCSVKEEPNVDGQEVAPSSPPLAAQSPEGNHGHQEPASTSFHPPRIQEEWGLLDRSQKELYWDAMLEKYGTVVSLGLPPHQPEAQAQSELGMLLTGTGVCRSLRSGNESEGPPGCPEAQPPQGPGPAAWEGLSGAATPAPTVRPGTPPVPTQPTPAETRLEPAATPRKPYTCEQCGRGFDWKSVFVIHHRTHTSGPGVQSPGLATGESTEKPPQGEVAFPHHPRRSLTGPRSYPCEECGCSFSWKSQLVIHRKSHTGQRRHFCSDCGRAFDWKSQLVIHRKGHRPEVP
As to the kind of experiment: co-IP; co-expression in HEK293T for 48 h; lysis in non-denaturing buffer (50 mM HEPES pH 7.4, 150 mM NaCl, 1% Triton X-100, 0.5% sodium deoxycholate); immunoprecipitation with HA or V5 antibody at 4°C; three washes in the buffer and one with 500 mM NaCl; immunoblot. (In western blotting, separated proteins are transferred to a membrane and probed.)

With “ZNF165-myc with the SCAN domain deleted (from UniProt P49910)”, the binding entry is listed as “no binding”.
